Sequences and labels used below:
B1: PTPN1 (enzyme, UniProt P18031 1-435)
chain: MEMEKEFEQIDKSGSWAAIYQDIRHEASDFPCRVAKLPKNKNRNRYRDVSPFDHSRIKLHQEDNDYINASLIKMEEAQRSYILTQGPLPNTCGHFWEMVWEQKSRGVVMLNRVMEKGSLKCAQYWPQKEEKEMIFEDTNLKLTLISEDIKSYYTVRQLELENLTTQETREILHFHYTTWPDFGVPESPASFLNFLFKVRESGSLSPEHGPVVVHCSAGIGRSGTFCLADTCLLLMDKRKDPSSVDIKKVLLEMRKFRMGLIQTADQLRFSYLAVIEGAKFIMGDSSVQDQWKELSHEDLEPPPEHIPPPPRPPKRILEPHNGKCREFFPNHQWVKEETQEDKDCPIKEEKGSPLNAAPYGIESMSQDTEVRSRVVGGSLRGAQAASPAKGEPSLPEKDEDHALSYWKPFLVNMCVATVLTAGAYLCYRFLFNSNT
B2: doublecortin domain-containing protein 2 (DCDC2) (protein, UniProt Q9UHG0 1-476)
chain: MSGSSARSSHLSQPVVKSVLVYRNGDPFYAGRRVVIHEKKVSSFEVFLKEVTGGVQAPFGAVRNIYTPRTGHRIRKLDQIQSGGNYVAGGQEAFKKLNYLDIGEIKKRPMEVVNTEVKPVIHSRINVSARFRKPLQEPCTIFLIANGDLINPASRLLIPRKTLNQWDHVLQMVTEKITLRSGAVHRLYTLEGKLVESGAELENGQFYVAVGRDKFKKLPYSELLFDKSTMRRPFGQKASSLPPIVGSRKSKGSGNDRHSKSTVGSSDNSSPQPLKRKGKKEDVNSEKLTKLKQNVKLKNSQETIPNSDEGIFKAGAERSETRGAAEVQEDEDTQVEVPVDQRPAEIVDEEEDGEKANKDAEQKEDFSGMNGDLEEEGGREATDAPEQVEEILDHSEQQARPARVNGGTDEENGEELQQVNNELQLVLDKERKSQGAGSGQDEADVDPQRPPRPEVKITSPEENENNQQNKDYAAVA

Protein sequences, listed by entry. Tags and fused reporters are not part of them. Residues count along the entry.
UniProt P06213, residues 28-1382: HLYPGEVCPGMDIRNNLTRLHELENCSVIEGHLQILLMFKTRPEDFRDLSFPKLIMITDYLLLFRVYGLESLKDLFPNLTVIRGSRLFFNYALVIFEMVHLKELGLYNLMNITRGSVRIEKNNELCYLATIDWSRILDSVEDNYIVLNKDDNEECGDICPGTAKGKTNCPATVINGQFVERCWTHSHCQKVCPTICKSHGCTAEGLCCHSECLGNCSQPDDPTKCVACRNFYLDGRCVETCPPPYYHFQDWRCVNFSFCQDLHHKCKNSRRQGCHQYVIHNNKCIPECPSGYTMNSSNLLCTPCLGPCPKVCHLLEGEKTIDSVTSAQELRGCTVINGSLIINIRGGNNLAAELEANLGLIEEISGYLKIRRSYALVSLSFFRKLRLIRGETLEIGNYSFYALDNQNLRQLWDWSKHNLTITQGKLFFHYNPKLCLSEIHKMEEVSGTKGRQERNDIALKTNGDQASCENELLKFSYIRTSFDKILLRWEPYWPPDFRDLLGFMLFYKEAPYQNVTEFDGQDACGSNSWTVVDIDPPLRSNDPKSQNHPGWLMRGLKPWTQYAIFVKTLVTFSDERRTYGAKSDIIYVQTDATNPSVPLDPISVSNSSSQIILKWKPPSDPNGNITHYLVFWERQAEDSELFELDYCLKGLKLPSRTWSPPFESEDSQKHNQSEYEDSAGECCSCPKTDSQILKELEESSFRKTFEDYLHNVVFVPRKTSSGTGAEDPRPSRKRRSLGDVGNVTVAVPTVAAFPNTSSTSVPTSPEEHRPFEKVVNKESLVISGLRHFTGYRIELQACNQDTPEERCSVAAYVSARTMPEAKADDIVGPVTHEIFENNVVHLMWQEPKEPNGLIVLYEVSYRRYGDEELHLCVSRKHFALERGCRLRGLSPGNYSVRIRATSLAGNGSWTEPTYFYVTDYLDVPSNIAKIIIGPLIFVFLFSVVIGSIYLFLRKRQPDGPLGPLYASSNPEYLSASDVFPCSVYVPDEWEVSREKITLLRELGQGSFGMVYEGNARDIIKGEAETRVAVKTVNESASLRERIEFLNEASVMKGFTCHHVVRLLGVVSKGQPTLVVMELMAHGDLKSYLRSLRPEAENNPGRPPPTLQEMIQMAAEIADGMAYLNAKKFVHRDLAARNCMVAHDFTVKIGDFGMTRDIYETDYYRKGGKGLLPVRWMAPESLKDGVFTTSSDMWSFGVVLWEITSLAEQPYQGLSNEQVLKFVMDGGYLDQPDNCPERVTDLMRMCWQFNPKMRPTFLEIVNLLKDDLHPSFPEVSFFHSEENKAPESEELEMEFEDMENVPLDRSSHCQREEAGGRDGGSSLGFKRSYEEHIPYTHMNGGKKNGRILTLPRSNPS
UniProt O95292: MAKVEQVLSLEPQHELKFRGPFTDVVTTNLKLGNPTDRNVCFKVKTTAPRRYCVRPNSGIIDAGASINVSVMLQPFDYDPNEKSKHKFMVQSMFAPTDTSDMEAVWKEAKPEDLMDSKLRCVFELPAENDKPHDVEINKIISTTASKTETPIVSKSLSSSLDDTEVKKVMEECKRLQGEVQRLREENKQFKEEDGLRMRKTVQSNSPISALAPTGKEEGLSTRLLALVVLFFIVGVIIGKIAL
UniProt O14980: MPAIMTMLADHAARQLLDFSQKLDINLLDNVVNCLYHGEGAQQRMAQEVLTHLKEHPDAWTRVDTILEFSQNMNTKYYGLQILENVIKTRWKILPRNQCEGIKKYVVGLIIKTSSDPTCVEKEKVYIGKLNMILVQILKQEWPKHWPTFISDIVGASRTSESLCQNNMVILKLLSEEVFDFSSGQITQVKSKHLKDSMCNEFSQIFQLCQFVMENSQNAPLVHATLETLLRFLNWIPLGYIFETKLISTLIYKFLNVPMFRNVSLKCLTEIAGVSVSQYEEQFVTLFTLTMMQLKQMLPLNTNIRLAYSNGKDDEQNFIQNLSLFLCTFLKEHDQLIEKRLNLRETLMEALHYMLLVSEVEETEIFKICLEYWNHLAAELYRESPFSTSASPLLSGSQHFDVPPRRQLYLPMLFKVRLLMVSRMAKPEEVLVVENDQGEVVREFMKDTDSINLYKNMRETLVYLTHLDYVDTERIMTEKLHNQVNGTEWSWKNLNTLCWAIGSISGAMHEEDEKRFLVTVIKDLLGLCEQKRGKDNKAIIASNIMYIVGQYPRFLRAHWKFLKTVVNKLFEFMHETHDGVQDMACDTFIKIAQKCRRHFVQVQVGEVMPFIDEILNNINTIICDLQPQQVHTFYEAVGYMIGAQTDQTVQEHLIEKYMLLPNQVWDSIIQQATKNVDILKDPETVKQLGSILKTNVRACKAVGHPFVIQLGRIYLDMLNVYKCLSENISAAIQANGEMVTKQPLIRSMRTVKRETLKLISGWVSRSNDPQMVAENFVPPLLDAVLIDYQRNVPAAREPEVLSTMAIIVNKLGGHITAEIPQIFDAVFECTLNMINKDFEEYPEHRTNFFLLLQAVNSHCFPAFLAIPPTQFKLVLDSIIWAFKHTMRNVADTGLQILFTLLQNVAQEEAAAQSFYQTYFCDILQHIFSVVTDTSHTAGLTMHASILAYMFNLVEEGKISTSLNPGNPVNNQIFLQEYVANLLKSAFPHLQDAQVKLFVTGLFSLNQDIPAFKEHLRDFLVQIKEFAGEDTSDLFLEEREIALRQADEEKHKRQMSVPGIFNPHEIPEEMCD
UniProt Q03135: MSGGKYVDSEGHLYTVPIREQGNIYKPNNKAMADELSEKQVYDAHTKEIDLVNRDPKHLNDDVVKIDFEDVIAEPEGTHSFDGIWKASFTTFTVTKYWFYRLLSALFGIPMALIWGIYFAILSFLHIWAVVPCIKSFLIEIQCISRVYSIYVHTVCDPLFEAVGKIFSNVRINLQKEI
UniProt Q9ULV4: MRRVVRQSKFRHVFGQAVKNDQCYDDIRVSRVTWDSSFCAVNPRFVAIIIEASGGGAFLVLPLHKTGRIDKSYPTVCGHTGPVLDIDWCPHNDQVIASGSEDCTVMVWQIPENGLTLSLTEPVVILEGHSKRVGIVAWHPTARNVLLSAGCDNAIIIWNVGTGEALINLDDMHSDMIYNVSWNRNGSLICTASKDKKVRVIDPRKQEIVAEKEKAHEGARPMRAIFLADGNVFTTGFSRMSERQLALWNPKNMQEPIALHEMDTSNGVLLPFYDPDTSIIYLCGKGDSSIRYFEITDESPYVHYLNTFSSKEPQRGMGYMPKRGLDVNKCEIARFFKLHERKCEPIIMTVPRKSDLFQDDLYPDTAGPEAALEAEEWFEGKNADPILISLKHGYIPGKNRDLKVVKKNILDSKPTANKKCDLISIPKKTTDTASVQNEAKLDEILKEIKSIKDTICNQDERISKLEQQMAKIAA
UniProt Q9Y4B5: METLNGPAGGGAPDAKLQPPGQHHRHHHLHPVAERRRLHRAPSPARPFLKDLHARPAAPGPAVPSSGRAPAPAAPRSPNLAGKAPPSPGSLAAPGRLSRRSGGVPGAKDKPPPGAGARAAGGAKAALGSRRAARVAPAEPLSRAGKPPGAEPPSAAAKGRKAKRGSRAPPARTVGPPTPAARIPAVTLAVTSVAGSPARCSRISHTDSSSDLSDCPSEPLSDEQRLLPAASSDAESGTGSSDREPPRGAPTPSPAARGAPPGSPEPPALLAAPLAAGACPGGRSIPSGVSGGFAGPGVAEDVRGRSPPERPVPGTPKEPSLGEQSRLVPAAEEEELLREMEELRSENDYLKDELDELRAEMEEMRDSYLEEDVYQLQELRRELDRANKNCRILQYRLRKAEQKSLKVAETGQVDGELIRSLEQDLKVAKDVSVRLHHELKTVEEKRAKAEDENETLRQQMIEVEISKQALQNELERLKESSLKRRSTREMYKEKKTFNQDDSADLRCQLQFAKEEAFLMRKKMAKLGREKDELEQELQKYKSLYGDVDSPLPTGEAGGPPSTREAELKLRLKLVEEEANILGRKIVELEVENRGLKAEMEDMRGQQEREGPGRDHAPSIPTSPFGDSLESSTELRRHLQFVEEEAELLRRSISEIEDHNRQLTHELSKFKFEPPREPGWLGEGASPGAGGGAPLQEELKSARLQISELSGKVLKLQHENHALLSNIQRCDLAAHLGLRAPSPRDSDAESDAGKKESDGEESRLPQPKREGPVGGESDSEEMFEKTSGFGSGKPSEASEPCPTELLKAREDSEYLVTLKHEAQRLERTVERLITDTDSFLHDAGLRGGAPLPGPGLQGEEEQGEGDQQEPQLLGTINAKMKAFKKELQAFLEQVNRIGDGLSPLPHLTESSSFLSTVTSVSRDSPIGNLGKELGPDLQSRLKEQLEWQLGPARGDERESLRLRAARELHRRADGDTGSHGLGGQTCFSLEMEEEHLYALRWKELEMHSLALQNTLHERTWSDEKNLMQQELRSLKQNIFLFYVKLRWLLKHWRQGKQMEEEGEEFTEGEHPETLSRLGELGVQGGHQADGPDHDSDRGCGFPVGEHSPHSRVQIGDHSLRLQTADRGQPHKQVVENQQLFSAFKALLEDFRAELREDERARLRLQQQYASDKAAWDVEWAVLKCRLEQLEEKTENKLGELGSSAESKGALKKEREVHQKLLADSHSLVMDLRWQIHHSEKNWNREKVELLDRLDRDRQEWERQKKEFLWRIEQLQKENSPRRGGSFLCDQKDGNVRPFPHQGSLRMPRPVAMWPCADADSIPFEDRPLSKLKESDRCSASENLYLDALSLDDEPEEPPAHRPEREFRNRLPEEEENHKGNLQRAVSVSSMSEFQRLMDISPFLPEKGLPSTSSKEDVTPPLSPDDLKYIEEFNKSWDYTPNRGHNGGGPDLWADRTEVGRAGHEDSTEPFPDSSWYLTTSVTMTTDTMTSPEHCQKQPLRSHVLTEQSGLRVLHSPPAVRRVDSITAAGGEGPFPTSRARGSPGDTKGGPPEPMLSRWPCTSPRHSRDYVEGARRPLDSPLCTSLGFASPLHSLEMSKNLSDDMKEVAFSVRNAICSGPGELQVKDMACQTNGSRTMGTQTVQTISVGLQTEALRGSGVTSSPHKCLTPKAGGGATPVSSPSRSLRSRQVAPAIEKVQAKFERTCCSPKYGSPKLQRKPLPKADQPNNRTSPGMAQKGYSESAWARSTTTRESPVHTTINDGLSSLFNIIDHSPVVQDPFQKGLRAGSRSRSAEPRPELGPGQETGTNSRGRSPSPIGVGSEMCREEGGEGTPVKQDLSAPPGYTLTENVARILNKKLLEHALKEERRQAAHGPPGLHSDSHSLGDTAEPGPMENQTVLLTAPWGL

No constants are given. Whether binding was seen depends on the method and setting. Binding seen in cells or lysates may run through a third protein. These calls come from enrichment with a bait or labelling near it, and not all partners need be listed.

The target of the first assay is human insulin receptor (INSR) overexpressed in immortalised human podocytes (hWT-IR) (human) (UniProt P06213). The assay can be described thus: affinity purification with mass spectrometry; INSR precipitated (anti-INSR beta CT-1 on protein G Dynabeads) from hWT-IR human podocyte lysate at 0, 2, 7 and 15 minutes of 100 nM insulin; in-gel digestion, label-free LC-MS/MS.
As to VPS13A (from UniProt Q96RL7 1-3174), the binding result is recorded as “binds”.

As for “Vesicle-associated membrane protein-associated protein B (from UniProt O95292 1-243)”, the binding entry is on record as “binds”.

For Exportin-1 (from UniProt O14980 1-1071), the binding result is on record as “binds”.

For CAV1 (from UniProt Q03135 1-178), the binding entry is “binds”.

Turning to Coronin-1C (from UniProt Q9ULV4 1-474), the binding entry is reported as “binds”.

For MTCL1 (from UniProt Q9Y4B5 1-1905), the binding result is “binds”.

The next assay shares this target. The description is as above. The source holds these as a separate data set.
In the case of B1, the binding result is given as “binds”.

As to B2, the binding result was “binds”.

These data come from paper PMC7788524.
